These are yes or no findings as the source states them, for the method shown. Binding seen in cells or lysates may run through a third protein. Here binding means that the protein was enriched with, or labelled near, the bait; the list need not be complete.
Molecular target: TAP-RBP10 (RBP10 with an N-terminal tandem affinity purification tag) (T. brucei (Lister 427)) (UniProt Q57W93)
Experiment: affinity purification with mass spectrometry; TAP-RBP10 from Lister 427 bloodstream forms: IgG column, TEV elution, calmodulin column, EGTA elution, SDS-PAGE, mass spectrometry; result over all six preparations (three with RNase, three without); TAP-GFP as negative control

The chains behind the UniProt entries cited, without tags or fusion partners. Where a name states a change or a piece, a line headed by the entry shows the natural chain unless it says otherwise.
UniProt Q4GZ52: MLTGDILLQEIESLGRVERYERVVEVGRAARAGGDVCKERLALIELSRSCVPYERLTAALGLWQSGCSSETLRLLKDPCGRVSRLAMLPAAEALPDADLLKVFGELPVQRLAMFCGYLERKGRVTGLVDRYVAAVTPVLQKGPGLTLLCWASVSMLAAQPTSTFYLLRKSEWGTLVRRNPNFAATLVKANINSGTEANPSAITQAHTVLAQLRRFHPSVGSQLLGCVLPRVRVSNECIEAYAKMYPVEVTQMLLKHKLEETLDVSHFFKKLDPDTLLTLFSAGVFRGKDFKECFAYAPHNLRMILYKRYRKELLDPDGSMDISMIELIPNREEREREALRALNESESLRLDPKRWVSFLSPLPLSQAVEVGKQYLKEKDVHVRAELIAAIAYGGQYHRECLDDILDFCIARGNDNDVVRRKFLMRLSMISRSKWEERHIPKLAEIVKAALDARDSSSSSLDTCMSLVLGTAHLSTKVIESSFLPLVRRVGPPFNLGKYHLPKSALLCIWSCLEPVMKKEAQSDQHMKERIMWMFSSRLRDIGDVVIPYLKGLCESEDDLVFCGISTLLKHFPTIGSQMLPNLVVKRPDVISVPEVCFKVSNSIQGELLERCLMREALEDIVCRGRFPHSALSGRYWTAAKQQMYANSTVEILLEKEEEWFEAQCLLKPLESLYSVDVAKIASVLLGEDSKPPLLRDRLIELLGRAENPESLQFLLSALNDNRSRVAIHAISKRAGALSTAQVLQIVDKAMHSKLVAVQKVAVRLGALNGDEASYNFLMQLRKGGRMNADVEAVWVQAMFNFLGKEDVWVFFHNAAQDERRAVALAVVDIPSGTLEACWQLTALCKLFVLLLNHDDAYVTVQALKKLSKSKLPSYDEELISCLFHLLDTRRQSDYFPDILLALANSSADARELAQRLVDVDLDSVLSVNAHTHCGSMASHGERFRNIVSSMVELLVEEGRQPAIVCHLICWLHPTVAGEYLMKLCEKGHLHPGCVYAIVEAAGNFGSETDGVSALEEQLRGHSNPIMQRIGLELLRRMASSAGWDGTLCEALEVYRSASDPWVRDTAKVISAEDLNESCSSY

Question: Which binding does the source give for “armadillo repeat protein, Tb927.1.1670 (from UniProt Q4GZ52)” here?
Answer: Its binding is “binds”.

— article PMC5568443
